# Data published in PubChem BioAssay AID504444 (National Center for Advancing Translational Sciences (NCATS), 2011).
# Out of some 360,000 compounds screened, about 7,500 (2.1%) were called active. Inconclusive results, whose numbers are uncertain, are shown with a selection of clear calls. Calls follow the shape of the dose curve; as a rule, active = well fitted inhibition curve with a large enough effect; inconclusive = small, poorly fitted or top-dose-only effect, or effect the other way; inactive = flat fitted curve, though single readings scatter. Potencies of inconclusive entries are doubtful fits and often do not repeat.
# Assay: Nrf2 qHTS screen for inhibitors; also: nearly all actives have a fitted effect of over 60% in size
# Details: A549 ARE-Fluc reporter, luciferase luminescence, 18-24 h; series mostly up to 46 µM
# In short: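 Concentration-response testing used A549 ARE_Fluc cells at 5000 cells/well. Following an 18-24 h compound incubation, viability was read by fluorescence (Ex 405/Em 525) and luciferase output by luminescence.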
# Potency is read from the fitted curve at half-maximal effect.
row,SMILES,Potency
1,c1ccc(-c2noc(C34CC5CC(CC(C5)C3)C4)n2)cc1,inactive
2,Cc1cc(C)cc(C(=O)Nc2cc3c4c(c2)CC(=O)N4CCC3)c1,"inconclusive: 14.6 µM [falling, single point]"
3,Cc1ccc(NC(=O)CN(C)S(=O)(=O)c2ccc3[nH]c4c(c3c2)CCCC4)c(Cl)c1,"inconclusive: 23.1 µM [falling, single point]"
4,Cc1ccccc1C(=O)Oc1cc(N)n(S(=O)(=O)c2ccccc2)n1,active: 7.31 µM
5,CCn1nc(C)cc1C(=O)OCC(=O)c1ccc(Cl)cc1,active: 18.4 µM
6,O=C1C=CC(=O)N1Cc1ccccc1,active: 16.4 µM
7,CCN(CC)C(=O)CSc1nc2ccc(NC(=O)CSc3nnc(COc4ccccc4C)n3C)cc2s1,"inconclusive: 29.1 µM [falling, single point]"
8,CCc1ccc(S(=O)(=O)/N=C2\C=C(Nc3cccc(C(=O)O)c3)C(=O)c3ccccc32)cc1,active: 20.6 µM
9,CC1CCN(c2nc(-c3ccco3)c3c(c2C#N)CC(C)(C)OC3)CC1,inactive
10,COc1ccc(CCNC(=O)CNC(=O)c2nn(-c3ccc(OC)c(OC)c3)c(=O)c3ccccc23)cc1OC,"inconclusive: 16.4 µM [falling, partial curve, poor fit]"
11,O=C(c1ccc([N+](=O)[O-])cc1)N1CCSC1c1ccccc1Cl (centres undefined),"inconclusive: 23.1 µM [falling, partial curve]"
12,COc1ccc(OC)c(/C=C/C(=O)Nc2ccc(C(=O)OCCC(C)C)cc2)c1,inactive
13,CC(=O)c1c(C)oc2ccc(N(C(C)=O)S(=O)(=O)c3ccc(F)cc3C)cc12,"inconclusive: 25.9 µM [falling, single point]"
14,COC(=O)c1coc(-c2ccc(OC)cc2)c1C(=O)OC,inactive
15,CC1C/C(=C/c2cccn2C)C(=O)/C(=C/c2cccn2C)C1 (centres undefined),"inconclusive: 25.9 µM [falling, partial curve, poor fit]"
16,Cc1ccc(S(=O)(=O)NCCC2=CCCCC2)cc1C(N)=O,active: 10.3 µM
17,CCN(CC)CCNC(=O)Nc1ccc2c(c1)N(Cc1ccccc1)C(=O)c1ccccc1S2,inactive
18,CN(C)/C=C/C(=O)c1ccc(-c2ccc(Cl)cc2Cl)o1,"inconclusive: 14.6 µM [activator, partial curve]"
19,CCC(C)(C)n1nnnc1C(C(C)C)N(Cc1ccco1)Cc1cc2cc3c(cc2[nH]c1=O)OCO3 (centres undefined),"inconclusive: 23.1 µM [falling, single point]"
20,CCc1ccc(S(=O)(=O)N(C(=O)Oc2ccccc2)c2ccc3oc(C)c(C(=O)OC)c3c2)cc1,active: 3.66 µM
21,COc1ccc(C(=O)NC(CC(=O)O)c2cc([N+](=O)[O-])ccc2Cl)c(SC)c1 (centres undefined),inactive
22,CCCCOc1cccc(C(=O)N(Cc2cccs2)c2ccc(OC)cc2)c1,"inconclusive: 14.6 µM [falling, partial curve, poor fit]"
23,Cc1cc(C)cc(N(CCC(=O)Nc2nnc(C)s2)S(=O)(=O)c2ccc(Cl)cc2)c1,inactive

row,SMILES,Potency
1,O=C(NN=Cc1ccccc1)c1ccccc1,"inconclusive: 0.92 µM [activator, full curve]"
2,Cc1nn2c(NCCN(C)C)c3c(nc2c1-c1ccccc1)CCCC3,inactive
3,COc1nc(-c2ccccc2)ccc1-c1noc(-c2ccco2)n1,"inconclusive: 13 µM [activator, partial curve]"
4,CC(Sc1nc(N)c2c3c(sc2n1)CSC(C)(C)C3)C(=O)Nc1ccccc1 (centres undefined),active: 18.4 µM
5,COc1ccc(C2C(C(=O)NCc3ccco3)c3ccccc3C(=O)N2C)cc1 (centres undefined),"inconclusive: 6.51 µM [activator, partial curve, poor fit]"
6,CC(C)(C)c1ccc(-c2nc(SCC(=O)Nc3ccc(Cl)cc3)[nH]c(=O)c2C#N)cc1,inactive
7,COC(=O)c1ccc(Oc2ccc(C(C)(C)C)cc2)c([N+](=O)[O-])c1,"inconclusive: 23.1 µM [activator, partial curve, poor fit]"
8,NC(=O)c1cc([N+](=O)[O-])ccc1NCc1ccc(N)cc1,active: 9.2 µM
9,CC1=C(C(N)=O)C(c2cccs2)NC(=S)N1 (centres undefined),inactive
10,O=C(CN1CCN(c2ccc(C(F)(F)F)cn2)CC1)Nc1ccc2c(c1)OCO2,"inconclusive: 20.6 µM [falling, single point]"
11,COc1ccc(NC(=O)c2cc(CN3CCCC3)on2)cc1Cl,"inconclusive: 9.2 µM [activator, partial curve]"
12,Cc1ccc(C)c(N2CCN(C(=O)CCCn3c(=O)c4cccn4c4cccnc43)CC2)c1,"inconclusive: 18.4 µM [falling, single point]"
13,O=[N+]([O-])c1cccc(-c2ccc(SCc3cccnc3)nn2)c1,"inconclusive: 5.17 µM [falling, partial curve, poor fit]"
14,Cc1ccc(C(=O)Nc2nnc(S(=O)(=O)N3CCc4ccccc43)s2)cc1,inactive
15,CCOc1cc(NC(=S)NCC2CCCO2)c(OCC)cc1NC(=O)c1ccccc1C (centres undefined),"inconclusive: 9.2 µM [falling, partial curve]"
16,O=C1c2cccc3cccc(c23)C(=O)N1OS(=O)(=O)c1ccc(Cl)cc1,inactive
17,Cc1c(C#N)c2ncn(CCCN(C)C)c(=O)c2n1-c1ccccc1,inactive
18,C=CCC[C@@H](Cc1ccc(F)cc1)C(=O)O[C@H](CNC(=O)[C@@H](CC=C)CC(=O)N[C@H](CO)Cc1ccccc1)c1ccccc1,"inconclusive: 29.1 µM [activator, single point]"
19,COc1cccc(-c2ncc3ccccc3c2COC(=O)N2CCCCC2)c1,active: 5.8 µM
20,O=C(CSc1nc(=O)n2cc(Cl)ccc2n1)Nc1ccc2c(c1)OCO2,inactive
21,Cc1c(C(=O)Nc2nccs2)oc2c(Cl)cccc12,"inconclusive: 4.11 µM [activator, single point]"
22,Cc1cc(C)c(-n2c(SCc3nc4ccccc4s3)n[nH]c2=O)c(C)c1,active: 16.4 µM
23,O=C(c1ccc(Cl)c(S(=O)(=O)Nc2ccccc2C(=O)N2CCc3ccccc3C2)c1)N1CCc2ccccc2C1,"inconclusive: 6.51 µM [falling, partial curve, poor fit]"

# Individual results from above.
# Entry of COc1ccc(C(=O)NC(CC(=O)O)c2cc([N+](=O)[O-])ccc2Cl)c(SC)c1 (centres undefined) under Potency: inactive
# Entry of O=C(c1ccc([N+](=O)[O-])cc1)N1CCSC1c1ccccc1Cl (centres undefined) under Potency: inconclusive: 23.1 µM [falling, partial curve]
# Entry of COc1ccc(OC)c(/C=C/C(=O)Nc2ccc(C(=O)OCCC(C)C)cc2)c1 under Potency: inactive
# Entry of O=C(CN1CCN(c2ccc(C(F)(F)F)cn2)CC1)Nc1ccc2c(c1)OCO2 under Potency: inconclusive: 20.6 µM [falling, single point]
# Entry of Cc1cc(C)c(-n2c(SCc3nc4ccccc4s3)n[nH]c2=O)c(C)c1 under Potency: active: 16.4 µM

# (listing goes on)

row,SMILES,Potency
1,O=C(NCc1ccc(F)cc1)c1cc(-c2ccc(Cl)cc2)n[nH]1,"inconclusive: 1.84 µM [falling, partial curve, poor fit]"
2,C/[N+]([O-])=C/c1c(OCc2ccc(Cl)cc2Cl)ccc2ccccc12,"inconclusive: 6.51 µM [activator, full curve, poor fit]"
3,CCn1ncc(C(=O)Nc2ccc(S(=O)(=O)N3CCCC3)cc2)c1C,"inconclusive: 7.31 µM [falling, partial curve, poor fit]"
4,CCc1ccc(S(=O)(=O)c2nnn3c2nc(Nc2ccc(F)cc2)c2cc(Cl)ccc23)cc1,active: 9.2 µM
5,COc1ccc(OC)c(NS(=O)(=O)c2cccc3cccnc23)c1,"inconclusive: 23.1 µM [falling, partial curve, poor fit]"
6,Clc1ss/c(=N\c2ccccn2)c1Cl,"inconclusive: 10.3 µM [activator, partial curve]"
7,Cc1ccc(C[n+]2ccccc2)cc1,active: 5.17 µM
8,Cc1ccc(NC(=S)NC(=O)c2ccc(F)cc2)cc1S(=O)(=O)Nc1ccccc1Cl,active: 7.31 µM
9,OCCN1CCN(C2CCC(c3ccc(F)cc3)c3ccc(F)cc32)CC1 (centres undefined),"inconclusive: 23.1 µM [activator, single point]"
10,CC(C)(C)NC(=O)C(c1ccncc1)N(Cc1ccc(F)cc1)C(=O)c1ccc(-c2ccccc2)[nH]1 (centres undefined),"inconclusive: 29.1 µM [activator, single point]"
11,CC1(C)CC(=O)C2=C(C1)N(CC1CCCO1)C(=O)C2(NC(=O)c1cccnc1)C(F)(F)F (centres undefined),inactive
12,N#CC1=C(N)OC2=C(C(=O)CC(c3ccco3)C2)C1c1ccc(OCc2c(F)cccc2Cl)cc1 (centres undefined),"inconclusive: 18.4 µM [falling, single point]"
13,Cc1cc(-c2ccc(S(=O)(=O)N3CCN(c4ccccc4F)CC3)s2)on1,"inconclusive: 3.66 µM [falling, full curve]"
14,Cc1cc(C(F)(F)F)nc(SCC(=O)NC2CC3CCC2C3)n1 (centres undefined),inactive
15,COc1cccc(CNC(=O)CN(c2ccc(C(C)C)cc2)S(=O)(=O)c2c(C)noc2C)c1,active: 16.4 µM
16,CC(=O)Oc1ccc(C23c4ccccc4C2(OC(C)=O)c2cc(OC(C)=O)ccc23)cc1 (centres undefined),"inconclusive: 16.4 µM [falling, partial curve]"
17,O=C1NC2c3c(I)sc(I)c3C(=O)C2O1 (centres undefined),"inconclusive: 2.91 µM [falling, partial curve, poor fit]"
18,Cc1cc(C)cc(Oc2c(C(F)(F)F)oc3cc(OCC(=O)NC4CCCCC4)ccc3c2=O)c1,inactive
19,O=C(NCCc1ccccc1F)c1ccc2c(c1)OCCO2,"inconclusive: 2.06 µM [falling, full curve, poor fit]"
20,CCCc1cnc(N2CCN(C(=O)c3ccc(OC)cc3)CC2)nc1,"inconclusive: 29.1 µM [falling, single point]"
21,O=C(NCCc1nc(-c2ccccc2Cl)no1)c1ccccc1,"inconclusive: 11.6 µM [falling, partial curve, poor fit]"
22,CC(C)C(=O)NCCc1nc(-c2ccccc2Cl)no1,"inconclusive: 18.4 µM [activator, partial curve, poor fit]"
23,N#Cc1c(NC(=O)COC(=O)c2ccc(F)cc2)sc2c1CCC2,"inconclusive: 0.82 µM [falling, full curve, poor fit]"
